Results reported in the supplement of paper PMC6411743.
± gives the standard deviation of the averaged measurements. The list shows a part of the results, in another mix than the full data. Most entries show no effect beyond the scatter of the controls.

Amino acid sequences for entries named in this document (tags omitted). A change or cut given only in a name is not applied to a line headed by its entry.
UniProt O94829: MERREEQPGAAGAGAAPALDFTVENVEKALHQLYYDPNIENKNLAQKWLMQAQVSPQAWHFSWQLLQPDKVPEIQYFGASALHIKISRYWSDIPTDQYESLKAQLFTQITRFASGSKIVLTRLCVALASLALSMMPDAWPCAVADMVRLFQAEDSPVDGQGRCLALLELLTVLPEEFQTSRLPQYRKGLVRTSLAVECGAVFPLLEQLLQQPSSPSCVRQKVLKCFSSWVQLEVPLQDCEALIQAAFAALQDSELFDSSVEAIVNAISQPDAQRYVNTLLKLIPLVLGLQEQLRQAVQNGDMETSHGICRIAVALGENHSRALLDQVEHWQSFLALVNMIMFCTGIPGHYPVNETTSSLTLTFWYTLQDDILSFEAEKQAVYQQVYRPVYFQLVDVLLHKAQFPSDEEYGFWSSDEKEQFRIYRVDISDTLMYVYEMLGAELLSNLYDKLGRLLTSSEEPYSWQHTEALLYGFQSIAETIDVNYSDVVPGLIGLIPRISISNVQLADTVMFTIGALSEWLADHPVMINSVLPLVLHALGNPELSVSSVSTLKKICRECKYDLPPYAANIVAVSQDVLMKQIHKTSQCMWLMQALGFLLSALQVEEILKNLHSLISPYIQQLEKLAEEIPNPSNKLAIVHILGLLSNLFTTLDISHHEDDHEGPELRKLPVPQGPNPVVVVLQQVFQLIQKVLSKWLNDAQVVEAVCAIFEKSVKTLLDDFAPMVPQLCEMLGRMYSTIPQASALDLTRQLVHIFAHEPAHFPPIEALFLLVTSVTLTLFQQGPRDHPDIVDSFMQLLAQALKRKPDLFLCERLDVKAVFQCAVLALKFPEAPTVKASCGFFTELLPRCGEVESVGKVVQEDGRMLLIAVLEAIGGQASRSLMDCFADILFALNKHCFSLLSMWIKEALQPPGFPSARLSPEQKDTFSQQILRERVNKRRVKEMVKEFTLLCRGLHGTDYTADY
UniProt O95376: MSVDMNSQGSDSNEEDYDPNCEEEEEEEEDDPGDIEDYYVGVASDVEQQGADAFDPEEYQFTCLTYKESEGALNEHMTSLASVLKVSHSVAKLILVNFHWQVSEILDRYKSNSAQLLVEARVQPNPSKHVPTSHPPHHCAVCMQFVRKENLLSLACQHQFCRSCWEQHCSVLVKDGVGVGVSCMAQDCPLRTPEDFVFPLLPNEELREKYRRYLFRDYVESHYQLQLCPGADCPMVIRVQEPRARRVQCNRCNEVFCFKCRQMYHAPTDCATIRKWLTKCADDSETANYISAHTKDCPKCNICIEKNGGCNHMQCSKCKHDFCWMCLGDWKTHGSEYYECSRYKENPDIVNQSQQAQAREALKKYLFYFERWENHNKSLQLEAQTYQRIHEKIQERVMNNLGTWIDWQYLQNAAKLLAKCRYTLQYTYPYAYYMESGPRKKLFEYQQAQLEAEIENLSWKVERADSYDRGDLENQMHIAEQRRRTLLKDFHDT
UniProt O75071: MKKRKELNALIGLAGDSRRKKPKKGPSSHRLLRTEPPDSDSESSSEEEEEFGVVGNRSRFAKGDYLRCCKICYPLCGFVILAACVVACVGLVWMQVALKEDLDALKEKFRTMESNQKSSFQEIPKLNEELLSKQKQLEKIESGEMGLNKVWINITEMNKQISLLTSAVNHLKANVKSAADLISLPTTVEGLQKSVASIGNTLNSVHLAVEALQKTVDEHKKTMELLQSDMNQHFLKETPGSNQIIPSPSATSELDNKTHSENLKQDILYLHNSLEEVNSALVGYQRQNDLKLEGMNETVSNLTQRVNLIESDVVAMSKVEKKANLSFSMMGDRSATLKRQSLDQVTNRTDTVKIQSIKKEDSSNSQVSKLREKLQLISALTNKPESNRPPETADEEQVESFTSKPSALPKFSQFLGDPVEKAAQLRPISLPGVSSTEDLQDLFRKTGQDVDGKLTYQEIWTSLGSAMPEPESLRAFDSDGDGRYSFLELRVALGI
UniProt O75369, whole entry: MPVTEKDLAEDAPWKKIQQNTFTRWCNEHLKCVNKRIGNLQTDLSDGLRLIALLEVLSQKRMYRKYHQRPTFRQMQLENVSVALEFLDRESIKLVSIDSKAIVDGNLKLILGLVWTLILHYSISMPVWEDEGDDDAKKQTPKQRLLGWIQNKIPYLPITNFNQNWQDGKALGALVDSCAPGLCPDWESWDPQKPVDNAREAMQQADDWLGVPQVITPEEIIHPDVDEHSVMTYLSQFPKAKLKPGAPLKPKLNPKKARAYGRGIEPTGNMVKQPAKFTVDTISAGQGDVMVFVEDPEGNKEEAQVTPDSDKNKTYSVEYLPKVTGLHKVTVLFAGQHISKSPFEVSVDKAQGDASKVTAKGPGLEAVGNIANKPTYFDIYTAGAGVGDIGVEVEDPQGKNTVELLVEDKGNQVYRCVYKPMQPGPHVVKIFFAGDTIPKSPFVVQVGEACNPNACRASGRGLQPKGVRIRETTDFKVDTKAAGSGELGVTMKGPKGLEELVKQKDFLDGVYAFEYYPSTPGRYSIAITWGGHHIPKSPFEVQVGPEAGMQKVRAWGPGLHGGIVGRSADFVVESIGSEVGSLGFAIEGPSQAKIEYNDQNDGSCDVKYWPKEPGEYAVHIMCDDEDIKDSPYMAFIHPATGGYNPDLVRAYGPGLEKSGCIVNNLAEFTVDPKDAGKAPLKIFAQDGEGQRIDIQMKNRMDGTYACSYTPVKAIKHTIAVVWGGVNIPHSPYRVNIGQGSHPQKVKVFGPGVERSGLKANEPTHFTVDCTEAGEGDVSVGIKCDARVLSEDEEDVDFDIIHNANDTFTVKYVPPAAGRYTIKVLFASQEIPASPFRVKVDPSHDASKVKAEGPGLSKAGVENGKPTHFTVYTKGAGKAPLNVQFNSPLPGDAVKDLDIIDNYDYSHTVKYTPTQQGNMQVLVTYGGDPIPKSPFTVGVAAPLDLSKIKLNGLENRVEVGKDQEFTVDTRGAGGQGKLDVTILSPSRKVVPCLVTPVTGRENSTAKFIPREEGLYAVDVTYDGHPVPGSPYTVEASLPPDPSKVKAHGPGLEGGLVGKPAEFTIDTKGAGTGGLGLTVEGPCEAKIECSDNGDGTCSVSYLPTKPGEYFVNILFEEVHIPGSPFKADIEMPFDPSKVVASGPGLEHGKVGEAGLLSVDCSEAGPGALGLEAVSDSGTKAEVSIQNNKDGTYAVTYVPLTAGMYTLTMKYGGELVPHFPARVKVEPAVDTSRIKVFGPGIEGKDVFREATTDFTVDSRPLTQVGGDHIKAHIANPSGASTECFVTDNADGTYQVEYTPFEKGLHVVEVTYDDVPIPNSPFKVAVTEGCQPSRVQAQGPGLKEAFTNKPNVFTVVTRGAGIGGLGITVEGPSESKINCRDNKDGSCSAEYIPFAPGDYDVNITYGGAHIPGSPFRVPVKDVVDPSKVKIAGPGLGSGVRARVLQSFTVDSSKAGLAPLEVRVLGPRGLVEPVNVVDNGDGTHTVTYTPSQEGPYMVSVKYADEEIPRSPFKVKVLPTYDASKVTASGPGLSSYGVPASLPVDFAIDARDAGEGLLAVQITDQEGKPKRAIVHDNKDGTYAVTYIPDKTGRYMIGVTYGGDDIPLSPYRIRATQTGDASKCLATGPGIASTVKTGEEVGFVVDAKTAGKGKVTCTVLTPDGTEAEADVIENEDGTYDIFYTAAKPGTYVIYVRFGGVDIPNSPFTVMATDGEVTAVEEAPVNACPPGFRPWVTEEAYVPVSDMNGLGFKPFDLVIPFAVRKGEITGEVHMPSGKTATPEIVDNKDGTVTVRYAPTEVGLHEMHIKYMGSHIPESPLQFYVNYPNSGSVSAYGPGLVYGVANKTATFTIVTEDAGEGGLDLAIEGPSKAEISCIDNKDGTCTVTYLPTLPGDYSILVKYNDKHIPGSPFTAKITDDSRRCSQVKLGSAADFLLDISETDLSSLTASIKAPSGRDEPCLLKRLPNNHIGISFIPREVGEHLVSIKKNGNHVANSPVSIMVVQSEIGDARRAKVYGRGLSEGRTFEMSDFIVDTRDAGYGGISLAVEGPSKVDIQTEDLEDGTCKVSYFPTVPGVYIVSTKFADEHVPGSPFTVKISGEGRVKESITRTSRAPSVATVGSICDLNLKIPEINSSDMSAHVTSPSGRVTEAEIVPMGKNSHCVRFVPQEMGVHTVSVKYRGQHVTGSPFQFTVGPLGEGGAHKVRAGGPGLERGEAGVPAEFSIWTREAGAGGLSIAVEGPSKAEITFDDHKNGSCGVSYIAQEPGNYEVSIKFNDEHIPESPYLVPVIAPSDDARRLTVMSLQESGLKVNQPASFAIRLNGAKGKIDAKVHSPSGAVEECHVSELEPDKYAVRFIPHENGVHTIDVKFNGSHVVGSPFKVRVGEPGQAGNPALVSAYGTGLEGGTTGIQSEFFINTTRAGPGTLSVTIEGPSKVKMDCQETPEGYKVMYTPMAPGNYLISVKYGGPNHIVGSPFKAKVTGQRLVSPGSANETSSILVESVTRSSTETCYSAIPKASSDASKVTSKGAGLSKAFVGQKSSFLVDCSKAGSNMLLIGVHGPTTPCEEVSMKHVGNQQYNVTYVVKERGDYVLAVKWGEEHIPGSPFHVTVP
UniProt O94964: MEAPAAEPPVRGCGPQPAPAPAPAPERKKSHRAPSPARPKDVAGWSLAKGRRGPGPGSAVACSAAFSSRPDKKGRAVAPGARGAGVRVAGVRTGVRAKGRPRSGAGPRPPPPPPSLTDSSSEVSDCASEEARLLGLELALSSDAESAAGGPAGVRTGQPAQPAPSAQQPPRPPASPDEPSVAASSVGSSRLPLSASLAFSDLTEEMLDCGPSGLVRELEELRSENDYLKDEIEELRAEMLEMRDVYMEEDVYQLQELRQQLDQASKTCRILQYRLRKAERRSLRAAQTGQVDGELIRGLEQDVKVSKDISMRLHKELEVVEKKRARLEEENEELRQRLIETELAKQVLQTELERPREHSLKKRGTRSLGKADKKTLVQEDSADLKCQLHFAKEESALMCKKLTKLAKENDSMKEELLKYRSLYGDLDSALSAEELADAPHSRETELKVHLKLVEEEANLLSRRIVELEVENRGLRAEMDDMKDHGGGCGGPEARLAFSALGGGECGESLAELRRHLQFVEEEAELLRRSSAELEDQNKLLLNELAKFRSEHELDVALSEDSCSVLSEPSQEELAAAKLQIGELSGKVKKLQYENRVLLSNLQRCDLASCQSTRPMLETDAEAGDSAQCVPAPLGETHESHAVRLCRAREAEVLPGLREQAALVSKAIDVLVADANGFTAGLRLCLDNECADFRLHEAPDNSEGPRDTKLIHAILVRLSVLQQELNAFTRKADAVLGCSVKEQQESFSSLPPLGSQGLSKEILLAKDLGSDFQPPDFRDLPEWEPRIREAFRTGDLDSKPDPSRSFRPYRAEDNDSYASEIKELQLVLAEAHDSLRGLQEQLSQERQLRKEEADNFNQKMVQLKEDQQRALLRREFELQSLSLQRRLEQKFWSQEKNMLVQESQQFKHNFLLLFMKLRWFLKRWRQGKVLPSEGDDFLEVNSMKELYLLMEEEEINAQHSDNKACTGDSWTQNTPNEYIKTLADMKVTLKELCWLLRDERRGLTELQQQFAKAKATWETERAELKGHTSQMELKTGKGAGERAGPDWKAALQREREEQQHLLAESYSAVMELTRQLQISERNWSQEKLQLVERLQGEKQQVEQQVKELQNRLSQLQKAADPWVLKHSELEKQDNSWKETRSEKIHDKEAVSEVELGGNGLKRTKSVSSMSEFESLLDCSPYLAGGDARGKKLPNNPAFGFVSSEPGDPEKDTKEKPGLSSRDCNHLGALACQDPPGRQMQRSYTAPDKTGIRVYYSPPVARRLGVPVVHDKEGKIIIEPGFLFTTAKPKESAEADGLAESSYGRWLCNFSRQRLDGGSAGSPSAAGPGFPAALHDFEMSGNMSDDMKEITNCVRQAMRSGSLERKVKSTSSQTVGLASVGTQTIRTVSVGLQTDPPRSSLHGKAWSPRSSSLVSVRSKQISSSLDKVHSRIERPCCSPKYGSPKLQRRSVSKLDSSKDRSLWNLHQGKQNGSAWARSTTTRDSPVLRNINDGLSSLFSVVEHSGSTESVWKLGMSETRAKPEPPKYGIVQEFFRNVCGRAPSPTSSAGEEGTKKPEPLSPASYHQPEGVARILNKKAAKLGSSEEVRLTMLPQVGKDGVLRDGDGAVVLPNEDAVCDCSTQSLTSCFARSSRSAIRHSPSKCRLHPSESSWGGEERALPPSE
UniProt O75934: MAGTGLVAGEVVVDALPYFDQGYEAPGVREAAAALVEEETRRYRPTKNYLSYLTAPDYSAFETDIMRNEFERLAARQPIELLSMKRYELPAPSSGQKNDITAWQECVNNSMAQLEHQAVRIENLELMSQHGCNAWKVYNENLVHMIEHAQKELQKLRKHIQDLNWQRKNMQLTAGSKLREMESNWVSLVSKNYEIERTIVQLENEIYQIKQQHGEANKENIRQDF

compound: Nc1ncnc2c1ncn2[C@@H]1O[C@H](COP(=O)(O)OP(=O)(O)NP(=O)(O)O)[C@@H](O)[C@H]1O [adenylyl imidodiphosphate]; experiment: NP40-soluble protein abundance relative to vehicle (solubility fold change) (ratio); higher = more soluble protein in presence of AMP-PNP; conditions: concentration: 0.1mM
In short: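 In three independent experiments, Jurkat crude lysate made by Dounce homogenisation was treated for 10 min at room temperature and then 3 min at 37 °C with eight concentrations ranging from 0.1 to 10 mM. It was then solubilised with 0.8% NP40 plus benzonase for 60 min at 4 °C and ultracentrifuged. The supernatant was TMT-labelled for LC-MS/MS, and each value is the fold change against the detergent-processed vehicle for the same replicate, using vsn-normalised intensities.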

Target	NP40-soluble protein abundance
IPO13 (UniProt O94829)	0.9692 ± 0.0035
DNAJC13 (UniProt O75165)	1.01 ± 0.032
USP1 (UniProt O94782)	1.06 ± 0.18
MRPS14 (UniProt O60783)	1.03 ± 0.026
ERLIN1 (UniProt O75477)	1.01 ± 0.061
ENDOD1 (UniProt O94919)	1.03 ± 0.027
RNGTT (UniProt O60942)	0.987 ± 0.015
UniProt O95671 and related entries	1.02 ± 0.033
ARIH2 (UniProt O95376)	0.978 ± 0.01
MAST3 (UniProt O60307)	1.0102 ± 0.00014
TRMU (UniProt O75648)	1.03 ± 0.051
UniProt O60232	0.996 ± 0.032
DOK2 (UniProt O60496)	0.9946 ± 0.0036
UniProt O75182 and related entries	0.961 ± 0.031
UniProt O75071	1 ± 0.032
UniProt O95479 and related entries	0.993 ± 0.029
CCDC22 (UniProt O60826)	1.003 ± 0.0077
UniProt O60343 and related entries	1.01 ± 0.059
RAB3D (UniProt O95716)	1.028 ± 0.0097
ACSL3 (UniProt O95573)	0.998 ± 0.057
DUSP11 (UniProt O75319)	1.02 ± 0.037
UniProt O75369-8|O75369-9|O75369 and related entries	0.968 ± 0.01
XYLB (UniProt O75191)	0.9914 ± 0.0068
EXTL3 (UniProt O43909)	0.992 ± 0.015
UniProt O94964 and related entries	0.983 ± 0.011
UGDH (UniProt O60701)	1.02 ± 0.039
SS18L1 (UniProt O75177)	0.997 ± 0.047
UniProt O75934	1.01 ± 0.04

Looked up above:
RAB3D (UniProt O95716) – NP40-soluble protein abundance: 1.028 ± 0.0097
UniProt O94964 and related entries – NP40-soluble protein abundance: 0.983 ± 0.011
